{"source": "PubChem BioAssay AID1259405 (NCATS, 2018)", "screen": "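Knock-downs that lift recombinant protein yield in hamster ovary cells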 (primary screen)", "cell system": "Chinese hamster CHO-K1 ovary cells with stable secreted eGFP expression", "knock-down reagent": "single siRNA against mouse genes, 0.8 pmol siRNA per well (2 µl of 400 nM stock)", "duration": "3 days", "measured": "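Per-well intracellular GFP measured by laser scanning cytometry, plus viability from ATP luminescence, each relative to plate median of non-targeting control wells, in %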", "reading the numbers": "GFP, % of control: higher = more GFP per well, higher productivity; viability (ATP), % of control: higher = more viable cells (more ATP)", "active means": "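a knock-down is called active if GFP reaches 120% or more of non-targeting control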", "note": "In all, the deposit lists about 50,000 reagents; this is a random part of them. In the full data, about 4,000 (8%) got an active call. 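Mouse siRNA library applied to hamster cells; one well for each siRNA.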 Entries without a mark were called inactive. Reagents against one gene are numbered here. Reagent sequences are not shown."}
{"Target gene": "Adgrv1 (adhesion G protein-coupled receptor V1)", "siRNA no.": 1, "GFP, % of control": 54.8, "viability (ATP), % of control": 54.9}
{"Target gene": "Adgrv1 (adhesion G protein-coupled receptor V1)", "siRNA no.": 2, "GFP, % of control": 93.1, "viability (ATP), % of control": 83.7}
{"Target gene": "Adgrv1 (adhesion G protein-coupled receptor V1)", "siRNA no.": 3, "GFP, % of control": 74, "viability (ATP), % of control": 81.1}
{"Target gene": "Tshz3 (teashirt zinc finger family member 3)", "siRNA no.": 1, "GFP, % of control": 63.4, "viability (ATP), % of control": 80.4}
{"Target gene": "Tshz3 (teashirt zinc finger family member 3)", "siRNA no.": 2, "GFP, % of control": 103, "viability (ATP), % of control": 100}
{"Target gene": "Tshz3 (teashirt zinc finger family member 3)", "siRNA no.": 3, "GFP, % of control": 77.2, "viability (ATP), % of control": 107}
{"Target gene": "Zfp366 (zinc finger protein 366)", "siRNA no.": 1, "GFP, % of control": 114, "viability (ATP), % of control": 131}
{"Target gene": "Zfp366 (zinc finger protein 366)", "siRNA no.": 2, "GFP, % of control": 80.2, "viability (ATP), % of control": 101}
{"Target gene": "Zfp366 (zinc finger protein 366)", "siRNA no.": 3, "GFP, % of control": 90.5, "viability (ATP), % of control": 123}
{"Target gene": "Lrp5 (low density lipoprotein receptor-related protein 5)", "siRNA no.": 1, "GFP, % of control": 89.4, "viability (ATP), % of control": 70.9}
{"Target gene": "Lrp5 (low density lipoprotein receptor-related protein 5)", "siRNA no.": 2, "GFP, % of control": 42.6, "viability (ATP), % of control": 43}
{"Target gene": "Lrp5 (low density lipoprotein receptor-related protein 5)", "siRNA no.": 3, "GFP, % of control": 98.7, "viability (ATP), % of control": 72.5}
{"Target gene": "Coq5 (coenzyme Q5 methyltransferase)", "siRNA no.": 1, "GFP, % of control": "125 (active)", "viability (ATP), % of control": 61.9}
{"Target gene": "Coq5 (coenzyme Q5 methyltransferase)", "siRNA no.": 2, "GFP, % of control": 75.2, "viability (ATP), % of control": 78}
{"Target gene": "Coq5 (coenzyme Q5 methyltransferase)", "siRNA no.": 3, "GFP, % of control": 48.2, "viability (ATP), % of control": 49.3}
{"Target gene": "Gadd45gip1", "siRNA no.": 1, "GFP, % of control": 87.8, "viability (ATP), % of control": 111}
{"Target gene": "Gadd45gip1", "siRNA no.": 2, "GFP, % of control": 58.7, "viability (ATP), % of control": 75.1}
{"Target gene": "Gadd45gip1", "siRNA no.": 3, "GFP, % of control": 90, "viability (ATP), % of control": 57.9}
{"Target gene": "Prmt9 (protein arginine methyltransferase 9)", "siRNA no.": 1, "GFP, % of control": 64.9, "viability (ATP), % of control": 82.8}
{"Target gene": "Prmt9 (protein arginine methyltransferase 9)", "siRNA no.": 2, "GFP, % of control": 81.2, "viability (ATP), % of control": 71.4}
{"Target gene": "Prmt9 (protein arginine methyltransferase 9)", "siRNA no.": 3, "GFP, % of control": 70.1, "viability (ATP), % of control": 99.1}
{"Target gene": "Psrc1 (proline/serine-rich coiled-coil 1)", "siRNA no.": 1, "GFP, % of control": 29.5, "viability (ATP), % of control": 28.4}
{"Target gene": "Psrc1 (proline/serine-rich coiled-coil 1)", "siRNA no.": 2, "GFP, % of control": 79.6, "viability (ATP), % of control": 74.6}
{"Target gene": "Psrc1 (proline/serine-rich coiled-coil 1)", "siRNA no.": 3, "GFP, % of control": "144 (active)", "viability (ATP), % of control": 125}
{"Target gene": "Akr1cl (aldo-keto reductase family 1, member C-like)", "siRNA no.": 1, "GFP, % of control": "124 (active)", "viability (ATP), % of control": 86.5}
{"Target gene": "Akr1cl (aldo-keto reductase family 1, member C-like)", "siRNA no.": 2, "GFP, % of control": 54.2, "viability (ATP), % of control": 61.7}
{"Target gene": "Akr1cl (aldo-keto reductase family 1, member C-like)", "siRNA no.": 3, "GFP, % of control": 74.2, "viability (ATP), % of control": 76.4}
{"Target gene": "Or8k33 (olfactory receptor family 8 subfamily K member 33)", "siRNA no.": 1, "GFP, % of control": 89.7, "viability (ATP), % of control": 72.7}
{"Target gene": "Or8k33 (olfactory receptor family 8 subfamily K member 33)", "siRNA no.": 2, "GFP, % of control": 76.7, "viability (ATP), % of control": 83.8}
{"Target gene": "Or8k33 (olfactory receptor family 8 subfamily K member 33)", "siRNA no.": 3, "GFP, % of control": 50.2, "viability (ATP), % of control": 107}
{"Target gene": "Zscan2 (zinc finger and SCAN domain containing 2)", "siRNA no.": 1, "GFP, % of control": 66.5, "viability (ATP), % of control": 51.3}
{"Target gene": "Zscan2 (zinc finger and SCAN domain containing 2)", "siRNA no.": 2, "GFP, % of control": 72.1, "viability (ATP), % of control": 68.9}
{"Target gene": "Zscan2 (zinc finger and SCAN domain containing 2)", "siRNA no.": 3, "GFP, % of control": "181 (active)", "viability (ATP), % of control": 71.1}
{"Target gene": "Emc3 (ER membrane protein complex subunit 3)", "siRNA no.": 1, "GFP, % of control": 100, "viability (ATP), % of control": 105}
{"Target gene": "Emc3 (ER membrane protein complex subunit 3)", "siRNA no.": 2, "GFP, % of control": 63.4, "viability (ATP), % of control": 84.8}
{"Target gene": "Emc3 (ER membrane protein complex subunit 3)", "siRNA no.": 3, "GFP, % of control": 106, "viability (ATP), % of control": 108}
{"Target gene": "Leo1 (Leo1, Paf1/RNA polymerase II complex component)", "siRNA no.": 1, "GFP, % of control": 88.3, "viability (ATP), % of control": 96.9}
{"Target gene": "Leo1 (Leo1, Paf1/RNA polymerase II complex component)", "siRNA no.": 2, "GFP, % of control": 71.4, "viability (ATP), % of control": 54.2}
{"Target gene": "Leo1 (Leo1, Paf1/RNA polymerase II complex component)", "siRNA no.": 3, "GFP, % of control": 110, "viability (ATP), % of control": 61.9}
{"Target gene": "Bank1 (B cell scaffold protein with ankyrin repeats 1)", "siRNA no.": 1, "GFP, % of control": 76.8, "viability (ATP), % of control": 50.6}
{"Target gene": "Bank1 (B cell scaffold protein with ankyrin repeats 1)", "siRNA no.": 2, "GFP, % of control": 72, "viability (ATP), % of control": 64.5}
{"Target gene": "Bank1 (B cell scaffold protein with ankyrin repeats 1)", "siRNA no.": 3, "GFP, % of control": 102, "viability (ATP), % of control": 93.9}
{"Target gene": "Btc (betacellulin, epidermal growth factor family member)", "siRNA no.": 1, "GFP, % of control": 39.7, "viability (ATP), % of control": 41.3}
{"Target gene": "Btc (betacellulin, epidermal growth factor family member)", "siRNA no.": 2, "GFP, % of control": 56.1, "viability (ATP), % of control": 64.4}
{"Target gene": "Btc (betacellulin, epidermal growth factor family member)", "siRNA no.": 3, "GFP, % of control": 29.4, "viability (ATP), % of control": 26.4}
{"Target gene": "Arhgap32 (Rho GTPase activating protein 32)", "siRNA no.": 1, "GFP, % of control": 97.6, "viability (ATP), % of control": 78.6}
{"Target gene": "Arhgap32 (Rho GTPase activating protein 32)", "siRNA no.": 2, "GFP, % of control": 83.9, "viability (ATP), % of control": 89.5}
{"Target gene": "Arhgap32 (Rho GTPase activating protein 32)", "siRNA no.": 3, "GFP, % of control": 77.4, "viability (ATP), % of control": 64.3}
{"Target gene": "Obp2a (odorant binding protein 2A)", "siRNA no.": 1, "GFP, % of control": 96, "viability (ATP), % of control": 67.1}
{"Target gene": "Obp2a (odorant binding protein 2A)", "siRNA no.": 2, "GFP, % of control": 68.7, "viability (ATP), % of control": 68}
{"Target gene": "Obp2a (odorant binding protein 2A)", "siRNA no.": 3, "GFP, % of control": 74.4, "viability (ATP), % of control": 76.1}
{"Target gene": "Ggh (gamma-glutamyl hydrolase)", "siRNA no.": 1, "GFP, % of control": 71.8, "viability (ATP), % of control": 59}
{"Target gene": "Ggh (gamma-glutamyl hydrolase)", "siRNA no.": 2, "GFP, % of control": "142 (active)", "viability (ATP), % of control": 110}
{"Target gene": "Ggh (gamma-glutamyl hydrolase)", "siRNA no.": 3, "GFP, % of control": 78.9, "viability (ATP), % of control": 68.5}

Individual results from above:
Entry of Gadd45gip1 #1 in “GFP, % of control”: 87.8
For “viability (ATP), % of control”, Ggh (gamma-glutamyl hydrolase) #1 is entered as 59
Result of Bank1 (B cell scaffold protein with ankyrin repeats 1) #1 under “GFP, % of control”: 76.8
For “GFP, % of control”, Or8k33 (olfactory receptor family 8 subfamily K member 33) #3 reads 50.2
Arhgap32 (Rho GTPase activating protein 32) #1, GFP, % of control → 97.6
Zscan2 (zinc finger and SCAN domain containing 2) #3, GFP, % of control = 181 (active)
